# Laboratory results published in the supplement of paper PMC8728848.
# The other results are listed elsewhere or left out.
# Experiments:
# Test in all cases: glycan array binding signal (z-score within array); higher = stronger binding
# Details in all cases: glycan notation: IUPAC condensed, linker removed
# [1] = molecular target: Gal(b1-3)GlcNAc(b1-2)Man(a1-3)[Gal(b1-3)GlcNAc(b1-2)Man(a1-6)]Man(b1-4)GlcNAc(b1-4)[Fuc(a1-6)]GlcNAc
# How it was run: (§1)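 Glycan array data were curated from 3228 arrays in the Consortium for Functional Glycomics database and kept only where the protein sequence was available. Glycan names were converted to IUPAC-condensed notation, and columns mapping to the same glycan were averaged. The binding signal is a within-array Z-score, averaged across arrays of the same protein sequence at different concentrations or buffers and across linkers. Negative Z-scores can be read as non-binding.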
# [2] = molecular target: Gal(b1-3)GlcNAc(b1-2)Man(a1-3)[GlcNAc(b1-4)][Gal(b1-3)GlcNAc(b1-2)Man(a1-6)]Man(b1-4)GlcNAc(b1-4)GlcNAc
# How it was run: as §1
# [3] = molecular target: Gal(b1-3)GlcNAc(b1-2)[Gal(b1-3)GlcNAc(b1-6)]Man(a1-6)[Gal(b1-3)GlcNAc(b1-2)Man(a1-3)]Man(b1-4)GlcNAc(b1-4)GlcNAc
# How it was run: as §1
# [4] = molecular target: Gal(b1-3)GlcNAc(b1-3)Gal(b1-3)GlcNAc
# How it was run: as §1
# [5] = molecular target: Gal(b1-3)GlcNAc(b1-3)Gal(b1-4)Glc
# How it was run: as §1
# [6] = molecular target: Gal(b1-3)GlcNAc(b1-3)Gal(b1-4)GlcNAc
# How it was run: as §1
# [7] = molecular target: Gal(b1-3)GlcNAc(b1-3)Gal(b1-4)GlcNAc(b1-2)Man(a1-3)[Gal(b1-3)GlcNAc(b1-3)Gal(b1-4)GlcNAc(b1-2)Man(a1-6)]Man(b1-4)GlcNAc(b1-4)GlcNAc
# How it was run: as §1
# [8] = molecular target: Gal(b1-3)GlcNAc(b1-3)Gal(b1-4)GlcNAc(b1-2)[Gal(b1-3)GlcNAc(b1-3)Gal(b1-4)GlcNAc(b1-6)]Man(a1-6)[Gal(b1-3)GlcNAc(b1-3)Gal(b1-4)GlcNAc(b1-2)Man(a1-3)]Man(b1-4)GlcNAc(b1-4)[Fuc(a1-6)]GlcNAc
# How it was run: as §1
# [9] = molecular target: Gal(b1-3)GlcNAc(b1-3)Gal(b1-4)GlcNAc(b1-3)Gal(b1-4)GlcNAc(b1-2)[Gal(b1-3)GlcNAc(b1-3)Gal(b1-4)GlcNAc(b1-3)Gal(b1-4)GlcNAc(b1-6)]Man(a1-6)[Gal(b1-3)GlcNAc(b1-3)Gal(b1-4)GlcNAc(b1-3)Gal(b1-4)GlcNAc(b1-2)Man(a1-3)]Man(b1-4)GlcNAc(b1-4)[Fuc(a1-6)]GlcNAc
# How it was run: as §1
# [10] = molecular target: Gal(b1-3)GlcNAc(b1-3)Gal(b1-4)GlcNAc(b1-6)[Gal(b1-3)GlcNAc(b1-3)]Gal(b1-4)Glc
# How it was run: as §1
# [11] = molecular target: Gal(b1-3)GlcNAc(b1-3)Gal(b1-4)[Fuc(a1-3)]GlcNAc(b1-6)[Gal(b1-3)GlcNAc(b1-3)]Gal(b1-4)Glc
# How it was run: as §1
# [12] = molecular target: Gal(b1-3)GlcNAc(b1-3)GalNAc
# How it was run: as §1
# [13] = molecular target: Gal(b1-3)GlcNAc(b1-6)Gal(b1-4)GlcNAc
# How it was run: as §1
# [14] = molecular target: Gal(b1-3)GlcNAc(b1-6)GalNAc
# How it was run: as §1
# [15] = molecular target: Gal(b1-3)GlcNAc(b1-6)[Gal(b1-3)]GalNAc
# How it was run: as §1
# Gal(b1-3)GlcNAc6S = molecular target: Gal(b1-3)GlcNAc6S
# How it was run: as §1
# [16] = molecular target: Gal(b1-3)[Fuc(a1-4)]GlcNAc
# How it was run: as §1
# [17] = molecular target: Gal(b1-3)[Fuc(a1-4)]GlcNAc(b1-2)Man
# How it was run: as §1
# [18] = molecular target: Gal(b1-3)[Fuc(a1-4)]GlcNAc(b1-2)Man(a1-3)[Gal(b1-3)[Fuc(a1-4)]GlcNAc(b1-2)Man(a1-6)]Man(b1-4)GlcNAc(b1-4)[Fuc(a1-6)]GlcNAc
# How it was run: as §1
# [19] = molecular target: Gal(b1-3)[Fuc(a1-4)]GlcNAc(b1-3)Gal(b1-3)[Fuc(a1-4)]GlcNAc
# How it was run: as §1
# [20] = molecular target: Gal(b1-3)[Fuc(a1-4)]GlcNAc(b1-3)Gal(b1-4)GlcNAc
# How it was run: as §1
# [21] = molecular target: Gal(b1-3)[Fuc(a1-4)]GlcNAc(b1-3)Gal(b1-4)[Fuc(a1-3)]GlcNAc
# How it was run: as §1
# [22] = molecular target: Gal(b1-3)[Fuc(a1-4)]GlcNAc(b1-6)GalNAc
# How it was run: as §1
# [23] = molecular target: Gal(b1-3)[GlcNAc(b1-6)]GalNAc
# How it was run: as §1
# [24] = molecular target: Gal(b1-3)[Neu5Ac(a2-6)]GalNAc
# How it was run: as §1
# [25] = molecular target: Gal(b1-3)[Neu5Ac(a2-6)]GlcNAc(b1-4)Gal(b1-4)Glc
# How it was run: as §1
# [26] = molecular target: Gal(b1-3)[Neu5Ac(b2-6)]GalNAc
# How it was run: as §1
# Gal(b1-4)Gal = molecular target: Gal(b1-4)Gal
# How it was run: as §1
# [27] = molecular target: Gal(b1-4)GalNAc(a1-3)[Fuc(a1-2)]Gal(b1-4)GlcNAc
# How it was run: as §1
# [28] = molecular target: Gal(b1-4)GalNAc(b1-3)[Fuc(a1-2)]Gal(b1-4)GlcNAc
# How it was run: as §1
# Gal(b1-4)Glc = molecular target: Gal(b1-4)Glc
# How it was run: as §1
# Gal(b1-4)Glc6S = molecular target: Gal(b1-4)Glc6S
# How it was run: as §1
# Gal(b1-4)GlcNAc = molecular target: Gal(b1-4)GlcNAc
# How it was run: as §1
# [29] = molecular target: Gal(b1-4)GlcNAc(a1-6)Gal(b1-4)GlcNAc
# How it was run: as §1
# Gal(b1-4)GlcNAc(b1-2)Man = molecular target: Gal(b1-4)GlcNAc(b1-2)Man
# How it was run: as §1
# [30] = molecular target: Gal(b1-4)GlcNAc(b1-2)Man(a1-3)Man(b1-4)GlcNAc(b1-4)GlcNAc
# How it was run: as §1
# [31] = molecular target: Gal(b1-4)GlcNAc(b1-2)Man(a1-3)[Gal(b1-4)GlcNAc(b1-2)Man(a1-6)]Man(b1-4)GlcNAc(b1-4)GlcNAc
# How it was run: as §1
# [32] = molecular target: Gal(b1-4)GlcNAc(b1-2)Man(a1-3)[Gal(b1-4)GlcNAc(b1-2)Man(a1-6)]Man(b1-4)GlcNAc(b1-4)[Fuc(a1-6)]GlcNAc
# How it was run: as §1
# [33] = molecular target: Gal(b1-4)GlcNAc(b1-2)Man(a1-3)[Gal(b1-4)GlcNAc(b1-2)Man(a1-6)][Gal(b1-4)GlcNAc(b1-4)]Man(b1-4)GlcNAc(b1-4)[Fuc(a1-6)]GlcNAc
# How it was run: as §1
# [34] = molecular target: Gal(b1-4)GlcNAc(b1-2)Man(a1-3)[Gal(b1-4)GlcNAc(b1-2)Man(a1-6)][GlcNAc(b1-4)]Man(b1-4)GlcNAc(b1-4)[Fuc(a1-6)]GlcNAc
# How it was run: as §1
# [35] = molecular target: Gal(b1-4)GlcNAc(b1-2)Man(a1-3)[GlcNAc(b1-2)Man(a1-6)]Man(b1-4)GlcNAc(b1-4)GlcNAc
# How it was run: as §1
# [36] = molecular target: Gal(b1-4)GlcNAc(b1-2)Man(a1-3)[GlcNAc(b1-4)][Gal(b1-4)GlcNAc(b1-2)Man(a1-6)]Man(b1-4)GlcNAc(b1-4)GlcNAc
# How it was run: as §1
# [37] = molecular target: Gal(b1-4)GlcNAc(b1-2)Man(a1-3)[Man(a1-6)]Man(b1-4)GlcNAc(b1-4)GlcNAc
# How it was run: as §1
# [38] = molecular target: Gal(b1-4)GlcNAc(b1-2)Man(a1-6)Man(b1-4)GlcNAc(b1-4)GlcNAc
# How it was run: as §1
# [39] = molecular target: Gal(b1-4)GlcNAc(b1-2)Man(a1-6)[GlcNAc(b1-2)Man(a1-3)]Man(b1-4)GlcNAc(b1-4)GlcNAc
# How it was run: as §1
binder,measurement,setting,value
"SfaEH (Escherichia coli), Q1RDG5 (protein) LLCRNNQTGQVFNSGDTSFRVNVSPVVQYDKSISVLDLSQLVSCQNEDSTGQNYDYLKILKGSGFSPALDTKTYGRLDFTSRPTGYARQLPLQFDLQVTEAFYQYGVWKPFPAKLYLYPAPGVFGKVINNGDLLATLYVNKFSTKGQEAGERNFTWRFYATNDVYIQTGTCRVSSNNVKVDLPSYPGGPVTVPLTVRCDQTQSVSYTLSGPVTGSGNTVFANTAASGSGGVGIQLSDNVGPVPAGQPRSLGQVGSSPVSLGLKASYALTGQASPTPGAVQSVINVTFSYN",glycan array binding signal (z-score),[1],-0.377
same,glycan array binding signal (z-score),[2],0.032
same,glycan array binding signal (z-score),[3],-0.525
same,glycan array binding signal (z-score),[4],0.174
same,glycan array binding signal (z-score),[5],-0.847
same,glycan array binding signal (z-score),[6],-0.895
same,glycan array binding signal (z-score),[7],-0.802
same,glycan array binding signal (z-score),[8],0.27
same,glycan array binding signal (z-score),[9],3.4
same,glycan array binding signal (z-score),[10],-0.77
same,glycan array binding signal (z-score),[11],0.378
same,glycan array binding signal (z-score),[12],0.787
same,glycan array binding signal (z-score),[13],0.147
same,glycan array binding signal (z-score),[14],-0.438
same,glycan array binding signal (z-score),[15],1.44
same,glycan array binding signal (z-score),Gal(b1-3)GlcNAc6S,0.226
same,glycan array binding signal (z-score),[16],-0.004
same,glycan array binding signal (z-score),[17],1.04
same,glycan array binding signal (z-score),[18],0.032
same,glycan array binding signal (z-score),[19],0.274
same,glycan array binding signal (z-score),[20],-0.081
same,glycan array binding signal (z-score),[21],0.574
same,glycan array binding signal (z-score),[22],-0.677
same,glycan array binding signal (z-score),[23],-0.022
same,glycan array binding signal (z-score),[24],-0.563
same,glycan array binding signal (z-score),[25],-0.638
same,glycan array binding signal (z-score),[26],-0.841
same,glycan array binding signal (z-score),Gal(b1-4)Gal,-0.186
same,glycan array binding signal (z-score),[27],-0.343
same,glycan array binding signal (z-score),[28],0.535
same,glycan array binding signal (z-score),Gal(b1-4)Glc,-0.376
same,glycan array binding signal (z-score),Gal(b1-4)Glc6S,0.117
same,glycan array binding signal (z-score),Gal(b1-4)GlcNAc,-0.108
same,glycan array binding signal (z-score),[29],-0.177
same,glycan array binding signal (z-score),Gal(b1-4)GlcNAc(b1-2)Man,-0.666
same,glycan array binding signal (z-score),[30],-0.607
same,glycan array binding signal (z-score),[31],0.902
same,glycan array binding signal (z-score),[32],0.956
same,glycan array binding signal (z-score),[33],-0.358
same,glycan array binding signal (z-score),[34],-0.692
same,glycan array binding signal (z-score),[35],-0.661
same,glycan array binding signal (z-score),[36],-0.421
same,glycan array binding signal (z-score),[37],-0.294
same,glycan array binding signal (z-score),[38],-0.268
same,glycan array binding signal (z-score),[39],-0.795

# A stretch taken from the entries so far, for reference:
binder,measurement,setting,value
"SfaEH (Escherichia coli), Q1RDG5 (protein) LLCRNNQTGQVFNSGDTSFRVNVSPVVQYDKSISVLDLSQLVSCQNEDSTGQNYDYLKILKGSGFSPALDTKTYGRLDFTSRPTGYARQLPLQFDLQVTEAFYQYGVWKPFPAKLYLYPAPGVFGKVINNGDLLATLYVNKFSTKGQEAGERNFTWRFYATNDVYIQTGTCRVSSNNVKVDLPSYPGGPVTVPLTVRCDQTQSVSYTLSGPVTGSGNTVFANTAASGSGGVGIQLSDNVGPVPAGQPRSLGQVGSSPVSLGLKASYALTGQASPTPGAVQSVINVTFSYN",glycan array binding signal (z-score),[33],-0.358
same,glycan array binding signal (z-score),[34],-0.692
